These results are taken from patent US7220576B2, “Methods and compositions for protein expression and purification” (Lifesensors, Inc., priority 2002, dated 2007).

The series deals with yeast. The series can be described thus: Expression and cleavage of UBL-GFP / SUMO-X-GFP fusions in yeast (Western blot). It is filed as cell-based, S. cerevisiae. To be noted: yeast BJ1991, copper induction.

B1: Hub1-GFP (protein)
chain: MGHHHHHHGSDSEVNQEAKPEVKPEVKPETHINLKVSDGSSEIFFKIKKTTPLRRLMEAFAKRQGKEMDSLRFLYDGIRIQADQAPEDLDMEDNDIIEAHREQIGG
For the molecule B1, the “Cleavage of fusion by endogenous hydrolases in yeast” value is reported as “not cleaved”.
